These are yes or no findings as the source states them, for the method shown. In cells and extracts the contact can be indirect. Some binding calls cover weakened binding; strength is not graded here.
Target: T1, VCIP135 (endogenous, immunoprecipitated) (UniProt Q96JH7)
T1 sequence: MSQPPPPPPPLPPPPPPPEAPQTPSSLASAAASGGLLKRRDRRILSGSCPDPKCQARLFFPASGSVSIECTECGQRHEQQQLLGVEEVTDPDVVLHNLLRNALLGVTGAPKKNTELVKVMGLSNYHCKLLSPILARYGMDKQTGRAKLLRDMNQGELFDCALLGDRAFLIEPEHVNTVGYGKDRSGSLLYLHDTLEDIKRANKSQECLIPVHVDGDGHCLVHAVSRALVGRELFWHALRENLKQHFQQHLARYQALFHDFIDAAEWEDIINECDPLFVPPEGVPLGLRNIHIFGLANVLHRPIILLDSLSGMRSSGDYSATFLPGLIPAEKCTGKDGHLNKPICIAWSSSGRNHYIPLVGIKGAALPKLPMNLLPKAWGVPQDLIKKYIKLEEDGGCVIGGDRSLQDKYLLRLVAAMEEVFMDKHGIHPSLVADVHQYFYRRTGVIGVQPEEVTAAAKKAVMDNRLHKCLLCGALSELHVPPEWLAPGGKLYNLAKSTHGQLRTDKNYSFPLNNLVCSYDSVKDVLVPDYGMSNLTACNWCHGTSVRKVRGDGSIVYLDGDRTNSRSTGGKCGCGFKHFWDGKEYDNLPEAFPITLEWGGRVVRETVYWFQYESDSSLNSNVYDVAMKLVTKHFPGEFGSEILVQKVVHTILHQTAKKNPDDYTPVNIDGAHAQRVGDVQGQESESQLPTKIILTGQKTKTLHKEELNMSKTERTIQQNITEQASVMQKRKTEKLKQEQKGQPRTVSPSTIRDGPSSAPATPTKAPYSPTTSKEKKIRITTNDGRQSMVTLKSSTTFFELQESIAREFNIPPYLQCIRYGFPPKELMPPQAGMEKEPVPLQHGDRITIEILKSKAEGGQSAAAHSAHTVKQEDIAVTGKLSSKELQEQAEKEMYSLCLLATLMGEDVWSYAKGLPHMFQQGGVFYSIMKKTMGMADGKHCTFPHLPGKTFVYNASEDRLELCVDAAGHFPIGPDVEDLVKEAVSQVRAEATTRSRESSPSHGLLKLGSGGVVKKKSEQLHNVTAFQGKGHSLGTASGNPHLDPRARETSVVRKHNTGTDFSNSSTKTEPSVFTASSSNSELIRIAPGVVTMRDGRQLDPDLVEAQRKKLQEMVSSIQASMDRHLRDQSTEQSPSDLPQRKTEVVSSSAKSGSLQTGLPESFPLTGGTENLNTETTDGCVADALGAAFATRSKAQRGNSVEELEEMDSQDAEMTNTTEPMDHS
Experiment: co-IP; endogenous VCIP135 immunoprecipitated (anti-VCIP135, CST 88153S, Protein G agarose) from lysate in 0.3% Nonidet P40 buffer (150 mM NaCl, 50 mM Tris-HCl, pH 7.5); immunoblot for MATIIα

Sequences of proteins named here, by UniProt entry; tags and fusion partners are left off.
UniProt P31153: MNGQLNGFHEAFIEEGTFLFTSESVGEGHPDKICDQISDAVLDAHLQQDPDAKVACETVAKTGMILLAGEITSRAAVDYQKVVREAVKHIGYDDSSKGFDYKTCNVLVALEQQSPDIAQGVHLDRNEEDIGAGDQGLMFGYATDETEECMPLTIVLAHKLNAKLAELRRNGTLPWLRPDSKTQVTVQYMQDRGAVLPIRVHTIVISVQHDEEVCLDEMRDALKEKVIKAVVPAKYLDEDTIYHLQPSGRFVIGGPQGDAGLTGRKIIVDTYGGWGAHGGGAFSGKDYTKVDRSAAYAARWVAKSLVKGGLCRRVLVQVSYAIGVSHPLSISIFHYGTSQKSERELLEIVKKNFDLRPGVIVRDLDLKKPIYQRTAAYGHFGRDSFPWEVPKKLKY

## MATIIα (endogenous) (from UniProt P31153 1-395) (enzyme)
  binding: binds

From paper PMC9213445
